In paper PMC7210110:
Results are given in words; binding and its absence hold for the method and conditions named. For some assays here: Binding seen in cells or lysates may run through a third protein. Some entries that bind do so weakly or less than the wild type. Where a sequence is shown, tags or fusion partners need not be part of it.

T1: AtHAK1 (Arabidopsis HDS-associated receptor-like kinase 1), cell-free synthesised, biotinylated (bls) copy and FLAG-tagged copy (Arabidopsis) (UniProt C0LGD7)
T1 sequence (chain, biotin on the biotin ligation site (bls copy only)): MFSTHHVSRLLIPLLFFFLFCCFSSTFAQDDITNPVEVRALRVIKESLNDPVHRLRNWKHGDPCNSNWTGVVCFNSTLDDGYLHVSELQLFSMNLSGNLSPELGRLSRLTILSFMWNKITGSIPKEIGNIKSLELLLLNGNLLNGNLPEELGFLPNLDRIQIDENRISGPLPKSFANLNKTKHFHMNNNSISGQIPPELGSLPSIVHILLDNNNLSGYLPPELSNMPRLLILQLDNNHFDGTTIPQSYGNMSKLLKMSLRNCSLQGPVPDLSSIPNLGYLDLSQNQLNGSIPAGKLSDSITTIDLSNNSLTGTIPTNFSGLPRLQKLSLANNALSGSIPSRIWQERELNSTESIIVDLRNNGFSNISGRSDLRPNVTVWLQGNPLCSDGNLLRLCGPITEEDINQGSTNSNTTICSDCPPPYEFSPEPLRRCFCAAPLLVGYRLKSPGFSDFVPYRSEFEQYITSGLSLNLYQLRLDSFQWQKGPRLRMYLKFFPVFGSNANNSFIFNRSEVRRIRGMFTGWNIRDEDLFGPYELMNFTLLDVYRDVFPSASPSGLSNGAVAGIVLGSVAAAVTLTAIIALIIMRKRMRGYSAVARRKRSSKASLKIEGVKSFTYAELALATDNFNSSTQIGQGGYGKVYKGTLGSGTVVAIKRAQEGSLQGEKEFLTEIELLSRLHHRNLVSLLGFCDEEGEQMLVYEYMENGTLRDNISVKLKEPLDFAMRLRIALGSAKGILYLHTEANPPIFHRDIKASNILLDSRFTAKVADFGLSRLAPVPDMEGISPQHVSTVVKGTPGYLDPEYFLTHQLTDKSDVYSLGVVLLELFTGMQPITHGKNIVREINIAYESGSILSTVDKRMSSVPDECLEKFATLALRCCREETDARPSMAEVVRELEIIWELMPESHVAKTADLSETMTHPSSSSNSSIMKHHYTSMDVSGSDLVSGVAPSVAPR

T2: AtHAK1, FLAG-tagged copy and 3xHA-tagged copy, in Nicotiana benthamiana leaf extract (Arabidopsis) (UniProt C0LGD7)
T2 sequence: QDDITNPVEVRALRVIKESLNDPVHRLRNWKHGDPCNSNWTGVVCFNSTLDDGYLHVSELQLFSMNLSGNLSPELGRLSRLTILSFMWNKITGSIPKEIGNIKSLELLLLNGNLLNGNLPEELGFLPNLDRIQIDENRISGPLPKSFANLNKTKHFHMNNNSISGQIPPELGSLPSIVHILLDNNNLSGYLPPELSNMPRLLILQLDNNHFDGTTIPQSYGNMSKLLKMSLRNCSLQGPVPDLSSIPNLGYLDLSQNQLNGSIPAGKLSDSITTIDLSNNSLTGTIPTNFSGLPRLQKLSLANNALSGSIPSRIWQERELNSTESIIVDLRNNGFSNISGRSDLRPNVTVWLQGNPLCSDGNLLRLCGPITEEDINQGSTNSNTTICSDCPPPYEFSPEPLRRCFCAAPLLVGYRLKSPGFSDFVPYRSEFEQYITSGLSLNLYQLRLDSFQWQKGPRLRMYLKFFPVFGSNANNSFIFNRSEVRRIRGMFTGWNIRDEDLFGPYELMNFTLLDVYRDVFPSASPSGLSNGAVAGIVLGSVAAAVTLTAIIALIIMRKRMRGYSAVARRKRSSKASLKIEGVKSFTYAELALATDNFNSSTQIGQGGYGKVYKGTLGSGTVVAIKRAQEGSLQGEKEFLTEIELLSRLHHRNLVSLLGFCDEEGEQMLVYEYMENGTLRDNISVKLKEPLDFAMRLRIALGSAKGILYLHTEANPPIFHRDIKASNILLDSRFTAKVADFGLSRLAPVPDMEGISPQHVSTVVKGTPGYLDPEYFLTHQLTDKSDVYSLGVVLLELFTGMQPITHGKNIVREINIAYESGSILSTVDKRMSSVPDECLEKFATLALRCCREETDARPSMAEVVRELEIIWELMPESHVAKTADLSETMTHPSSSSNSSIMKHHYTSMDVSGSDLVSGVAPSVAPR


Key:
[1] = target: T1, AtHAK1 (Arabidopsis HDS-associated receptor-like kinase 1), cell-free synthesised, biotinylated (bls) copy and FLAG-tagged copy (Arabidopsis); experiment: AlphaScreen or HTRF; AlphaScreen between biotinylated and FLAG-conjugated proteins synthesised in a cell-free system
[2] = target: T2, AtHAK1, FLAG-tagged copy and 3xHA-tagged copy, in Nicotiana benthamiana leaf extract (Arabidopsis); experiment: co-IP; FLAG- and 3xHA-tagged proteins expressed in N. benthamiana leaves; total protein extract (50 mM Tris-HCl pH 7.5, 150 mM NaCl, 1% NP-40) precipitated overnight at 4 °C with anti-DYKDDDDK-tag magnetic beads; blots with anti-HA and anti-FLAG

| binding [1] | binding [2] | Binder |
| --- | --- | --- |
| binds |  | AtHAK1 (Arabidopsis HDS-associated receptor-like kinase 1), cell-free synthesised, biotinylated (bls) copy and FLAG-tagged copy (receptor, UniProt C0LGD7 1-953, biotin on the biotin ligation site (bls copy only)) MFSTHHVSRLLIPLLFFFLFCCFSSTFAQDDITNPVEVRALRVIKESLNDPVHRLRNWKHGDPCNSNWTGVVCFNSTLDDGYLHVSELQLFSMNLSGNLSPELGRLSRLTILSFMWNKITGSIPKEIGNIKSLELLLLNGNLLNGNLPEELGFLPNLDRIQIDENRISGPLPKSFANLNKTKHFHMNNNSISGQIPPELGSLPSIVHILLDNNNLSGYLPPELSNMPRLLILQLDNNHFDGTTIPQSYGNMSKLLKMSLRNCSLQGPVPDLSSIPNLGYLDLSQNQLNGSIPAGKLSDSITTIDLSNNSLTGTIPTNFSGLPRLQKLSLANNALSGSIPSRIWQERELNSTESIIVDLRNNGFSNISGRSDLRPNVTVWLQGNPLCSDGNLLRLCGPITEEDINQGSTNSNTTICSDCPPPYEFSPEPLRRCFCAAPLLVGYRLKSPGFSDFVPYRSEFEQYITSGLSLNLYQLRLDSFQWQKGPRLRMYLKFFPVFGSNANNSFIFNRSEVRRIRGMFTGWNIRDEDLFGPYELMNFTLLDVYRDVFPSASPSGLSNGAVAGIVLGSVAAAVTLTAIIALIIMRKRMRGYSAVARRKRSSKASLKIEGVKSFTYAELALATDNFNSSTQIGQGGYGKVYKGTLGSGTVVAIKRAQEGSLQGEKEFLTEIELLSRLHHRNLVSLLGFCDEEGEQMLVYEYMENGTLRDNISVKLKEPLDFAMRLRIALGSAKGILYLHTEANPPIFHRDIKASNILLDSRFTAKVADFGLSRLAPVPDMEGISPQHVSTVVKGTPGYLDPEYFLTHQLTDKSDVYSLGVVLLELFTGMQPITHGKNIVREINIAYESGSILSTVDKRMSSVPDECLEKFATLALRCCREETDARPSMAEVVRELEIIWELMPESHVAKTADLSETMTHPSSSSNSSIMKHHYTSMDVSGSDLVSGVAPSVAPR |
|  | binds | AtHAK1, FLAG-tagged copy and 3xHA-tagged copy, in Nicotiana benthamiana leaf extract (receptor, UniProt C0LGD7 29-953) QDDITNPVEVRALRVIKESLNDPVHRLRNWKHGDPCNSNWTGVVCFNSTLDDGYLHVSELQLFSMNLSGNLSPELGRLSRLTILSFMWNKITGSIPKEIGNIKSLELLLLNGNLLNGNLPEELGFLPNLDRIQIDENRISGPLPKSFANLNKTKHFHMNNNSISGQIPPELGSLPSIVHILLDNNNLSGYLPPELSNMPRLLILQLDNNHFDGTTIPQSYGNMSKLLKMSLRNCSLQGPVPDLSSIPNLGYLDLSQNQLNGSIPAGKLSDSITTIDLSNNSLTGTIPTNFSGLPRLQKLSLANNALSGSIPSRIWQERELNSTESIIVDLRNNGFSNISGRSDLRPNVTVWLQGNPLCSDGNLLRLCGPITEEDINQGSTNSNTTICSDCPPPYEFSPEPLRRCFCAAPLLVGYRLKSPGFSDFVPYRSEFEQYITSGLSLNLYQLRLDSFQWQKGPRLRMYLKFFPVFGSNANNSFIFNRSEVRRIRGMFTGWNIRDEDLFGPYELMNFTLLDVYRDVFPSASPSGLSNGAVAGIVLGSVAAAVTLTAIIALIIMRKRMRGYSAVARRKRSSKASLKIEGVKSFTYAELALATDNFNSSTQIGQGGYGKVYKGTLGSGTVVAIKRAQEGSLQGEKEFLTEIELLSRLHHRNLVSLLGFCDEEGEQMLVYEYMENGTLRDNISVKLKEPLDFAMRLRIALGSAKGILYLHTEANPPIFHRDIKASNILLDSRFTAKVADFGLSRLAPVPDMEGISPQHVSTVVKGTPGYLDPEYFLTHQLTDKSDVYSLGVVLLELFTGMQPITHGKNIVREINIAYESGSILSTVDKRMSSVPDECLEKFATLALRCCREETDARPSMAEVVRELEIIWELMPESHVAKTADLSETMTHPSSSSNSSIMKHHYTSMDVSGSDLVSGVAPSVAPR |
